Results as given in paper doi:10.1101/2020.11.12.379313.
No constants are given. Whether binding was seen depends on the method and setting. Binding seen in cells or lysates may run through a third protein. Some results given as binding are weak or reduced against the parent protein; the word gives no strength. Where a sequence is shown, tags or fusion partners need not be part of it.

Target: Flag-APP-C99, P05067
Assay: co-IP
Conditions: remark: other sources report otherwise

- binding: binds
B1: human GSAP-16k with HA tag (a.a. 733 to a.a. 854), A4D1B5 733-854 (domain or fragment)
chain: RLMKDLDNTEKNEKLKFSIIVRLPPLIGQKICRLWDHPMSSNIISRNHVTRLLQNYKKQPRNSMINKSSFSVEFLPLNYFIEILTDIESSNQALYPFEGHDNVDAEFVEEAALKHTAMLLGL
